Test results as given in patent US20100028469A1, “Extracts of Cranberry and Methods of Using Thereof” (priority 2008, published 2010).
Some of these results come from one statement about several compounds together.

What was measured:
[1] = Human pharmacokinetic study, serum (DART TOF-MS); format: in vivo; conditions: 5 healthy adults; for detectable levels persisted in serum through: Extract 5 300 mg oral; for time of appearance in serum: two vegcaps Extract 5 (300 mg dose) oral
Method: (§1) Cranberry extracts 5 and 6 were prepared by HerbalScience Singapore Pte. Ltd. and prepared as 150-mg and 140-mg capsules, respectively. Each pharmacokinetic study (1 per extract) consisted of five healthy consenting adults ranging in age from 25 to 50 were instructed not to consume foods rich in phenolics 24 hours prior to the initiation of the study. A certified individual collected urine samples at several time intervals between 0 and 480 minutes after two capsules of a cranberry extract were ingested immediately after the time zero time point. Blood samples were handled with approved protocols and precautions, centrifuged to remove cells and the serum fraction was collected and frozen. Blood was not treated with heparin to avoid any analytical interference. Serum samples were stored frozen at −20° C. until analysis. The serum was extracted with an equal volume of neat ethanol (USP) to minimize background of proteins, peptides, and polysaccharides present in serum. The ethanol extract was centrifuged at 9300×g for 10 minutes at 4° C., the supernatant was removed, concentrated to 200 μL volume which was then used for DART TOF-MS analyses (FIG. 10). Urine samples were handled with approved protocols and precautions and frozen. Serum samples were stored frozen until analysis. The urine samples were analyzed neat by DART TOF-MS (FIGS. 11 and 12).

[2] = Human pharmacokinetic study, urine (DART TOF-MS); format: in vivo; conditions: for persistence in urine: last sampling time
Method: as §1

[3] = 5 healthy adults, two vegcaps Extract 6 oral
[4] = Extract 5 300 mg oral, first sampling time point

Compound: S-petasine
- detectable levels persisted in serum through [1]: 1 to 2 h
- time of appearance in serum [1]: ≤ 10 min
- time of appearance in urine [2, 3]: ≤ 1 h
- time of appearance in urine [2, 4]: ≤ 1 h
- persistence in urine ([2]; Extract 5 300 mg oral): ≥ 8 h

Compound: CC1=CC(=O)CC(C)(C)[C@@]1(O)/C=C/C(C)=C\C(=O)O [abscisic acid]
- detectable levels persisted in serum through [1]: 1 to 2 h
- time of appearance in serum [1]: ≤ 10 min
- time of appearance in urine [2, 3]: ≤ 1 h
- time of appearance in urine [2, 4]: ≤ 1 h
- persistence in urine ([2]; Extract 5 300 mg oral): ≥ 8 h
